Our source for the binding values is US20080027145A1, “Therapeutic Molecules and Methods for Generating and/or Selecting Same” (priority 2004, published 2008).

No constants are given. Whether binding was seen depends on the method and setting. For part of these data: In cells and extracts the contact can be indirect. For part of these data: Binding can be weak; no strength is given. For part of these data: Tags and fused reporters may be left off the sequences shown.

For experiment [1], the target named is LIF-receptor. As to the kind of experiment: Biacore, protein injected over the immobilised peptide. For orientation: Surface plasmon resonance follows binding to a sensor surface in real time, without labels.
In experiment [2] the target is Endogenous 14-3-3. As to the kind of experiment: co-immunoprecipitation from 293T cell lysates, immunoblot. (In general: Immunoblotting shows a protein as a band on a membrane.)

Consider PAELEVECATQLRRFGDKLNFRQKLL [Noxa (18-43) BH3 peptide, human], for which, in experiment [1], the binding result is “no binding”.

For the molecule NLWAAQRYGRELRRMSDEFVDSFKKG [Bad (103-128) BH3 peptide, human], the binding result in experiment [1] is “no binding”.

B1: HA-tagged full-length mouse Bad (protein)
chain: YPYDVPDYAMGTPKQPSLAPAHALGLRKSDPGIRSLGSDAGGRRWRPAAQSMFQIPEFEPSEQEDASATDRGLGPSLTEDQPGPYLAPGLLGSNIHQQGRAATNSHHGGAGAMETRSRHSSYPAGTEEDEGMEEELSPFRGRSRSAPPNLWAAQRYGRELRRMSDEFEGSFKGLPRPKSAGTATQMRQSAGWTRIIQSWWDRNLGKGGSTPSQ
Consider B1, for which the binding result in experiment [2] was “binds”.
